Results are given in words; binding and its absence hold for the method and conditions named. Binding seen in cells or lysates may run through a third protein. Some results given as binding are weak or reduced against the parent protein; the word gives no strength. For some assays here: Where a sequence is shown, tags or fusion partners need not be part of it.
Key:
[1] = target: T1, endogenous FNIP2 (folliculin-interacting protein 2) (human (endogenous in HEK293, cancer cell lines and renal tissue)) (UniProt Q9P278); assay: co-IP; endogenous FNIP1 and FNIP2 isolated from HEK293 lysates with anti-FNIP1 or anti-FNIP2 (IgG control), immunoblot
T1 sequence: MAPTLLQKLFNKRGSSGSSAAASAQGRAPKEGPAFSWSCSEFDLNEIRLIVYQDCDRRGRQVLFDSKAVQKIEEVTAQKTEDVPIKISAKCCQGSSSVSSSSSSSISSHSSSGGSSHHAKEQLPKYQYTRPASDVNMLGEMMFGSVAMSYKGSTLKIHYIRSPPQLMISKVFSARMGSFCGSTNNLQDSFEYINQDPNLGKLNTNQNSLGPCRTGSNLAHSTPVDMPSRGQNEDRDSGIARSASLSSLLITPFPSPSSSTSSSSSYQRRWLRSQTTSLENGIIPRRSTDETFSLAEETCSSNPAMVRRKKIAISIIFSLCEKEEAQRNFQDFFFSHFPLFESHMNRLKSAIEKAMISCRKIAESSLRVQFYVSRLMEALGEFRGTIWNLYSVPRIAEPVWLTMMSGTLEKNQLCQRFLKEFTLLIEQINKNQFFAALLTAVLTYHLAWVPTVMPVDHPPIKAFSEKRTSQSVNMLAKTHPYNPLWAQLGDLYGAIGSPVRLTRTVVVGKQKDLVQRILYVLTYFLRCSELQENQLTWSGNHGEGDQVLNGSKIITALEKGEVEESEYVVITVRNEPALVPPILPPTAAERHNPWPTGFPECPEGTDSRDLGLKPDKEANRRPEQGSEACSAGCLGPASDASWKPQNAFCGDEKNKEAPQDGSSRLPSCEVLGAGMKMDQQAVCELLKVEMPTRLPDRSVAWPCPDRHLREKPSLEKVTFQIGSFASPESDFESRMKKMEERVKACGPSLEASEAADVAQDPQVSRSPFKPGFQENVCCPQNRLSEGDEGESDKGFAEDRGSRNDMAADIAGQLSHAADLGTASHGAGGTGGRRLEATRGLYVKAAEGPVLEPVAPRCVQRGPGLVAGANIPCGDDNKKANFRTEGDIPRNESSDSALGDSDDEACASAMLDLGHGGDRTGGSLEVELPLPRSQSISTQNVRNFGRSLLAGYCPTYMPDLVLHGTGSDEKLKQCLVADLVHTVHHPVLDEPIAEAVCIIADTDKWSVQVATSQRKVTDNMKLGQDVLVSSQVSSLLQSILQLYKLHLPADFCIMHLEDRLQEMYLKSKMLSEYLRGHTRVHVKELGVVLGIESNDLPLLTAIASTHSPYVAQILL

[2] = target: T2, endogenous FNIP1 (folliculin-interacting protein 1) (human (endogenous in HEK293, cancer cell lines and renal tissue)) (UniProt Q8TF40); assay: as above
T2 sequence: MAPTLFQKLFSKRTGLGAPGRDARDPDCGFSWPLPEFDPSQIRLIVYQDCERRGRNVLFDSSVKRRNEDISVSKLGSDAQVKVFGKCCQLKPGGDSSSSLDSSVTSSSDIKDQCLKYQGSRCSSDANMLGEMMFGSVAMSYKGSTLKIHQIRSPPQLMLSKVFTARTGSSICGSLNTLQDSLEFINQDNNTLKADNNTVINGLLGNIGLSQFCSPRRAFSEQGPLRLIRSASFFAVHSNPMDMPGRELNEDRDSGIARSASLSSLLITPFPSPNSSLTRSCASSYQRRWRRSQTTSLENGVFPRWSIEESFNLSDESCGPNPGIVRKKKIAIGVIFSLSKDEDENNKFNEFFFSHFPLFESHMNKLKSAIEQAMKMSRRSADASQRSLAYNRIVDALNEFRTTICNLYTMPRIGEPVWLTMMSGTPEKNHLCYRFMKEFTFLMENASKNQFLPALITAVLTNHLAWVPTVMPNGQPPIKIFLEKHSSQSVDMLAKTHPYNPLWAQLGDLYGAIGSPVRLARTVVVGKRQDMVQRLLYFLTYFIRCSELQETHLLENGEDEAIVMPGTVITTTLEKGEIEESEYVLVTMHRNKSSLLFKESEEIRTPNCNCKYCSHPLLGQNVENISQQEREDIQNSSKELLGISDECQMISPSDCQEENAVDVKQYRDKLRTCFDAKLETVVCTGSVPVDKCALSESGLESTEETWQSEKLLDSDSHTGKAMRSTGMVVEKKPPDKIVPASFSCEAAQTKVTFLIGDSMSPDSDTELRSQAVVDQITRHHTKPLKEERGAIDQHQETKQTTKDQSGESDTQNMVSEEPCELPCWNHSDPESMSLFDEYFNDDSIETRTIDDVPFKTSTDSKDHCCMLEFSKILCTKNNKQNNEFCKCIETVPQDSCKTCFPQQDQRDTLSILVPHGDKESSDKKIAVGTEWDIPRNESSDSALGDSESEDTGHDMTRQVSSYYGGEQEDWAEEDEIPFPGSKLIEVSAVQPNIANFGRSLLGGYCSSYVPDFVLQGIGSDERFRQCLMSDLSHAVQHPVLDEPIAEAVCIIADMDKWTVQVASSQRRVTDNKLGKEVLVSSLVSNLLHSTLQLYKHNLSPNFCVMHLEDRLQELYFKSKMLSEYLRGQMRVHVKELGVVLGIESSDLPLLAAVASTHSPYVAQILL

[3] = target: T3, endogenous FLCN (folliculin) (human (endogenous in HEK293)) (UniProt Q8NFG4); assay: co-IP; endogenous FLCN isolated from HEK293 lysates with anti-FLCN (IgG control), immunoblot
T3 sequence: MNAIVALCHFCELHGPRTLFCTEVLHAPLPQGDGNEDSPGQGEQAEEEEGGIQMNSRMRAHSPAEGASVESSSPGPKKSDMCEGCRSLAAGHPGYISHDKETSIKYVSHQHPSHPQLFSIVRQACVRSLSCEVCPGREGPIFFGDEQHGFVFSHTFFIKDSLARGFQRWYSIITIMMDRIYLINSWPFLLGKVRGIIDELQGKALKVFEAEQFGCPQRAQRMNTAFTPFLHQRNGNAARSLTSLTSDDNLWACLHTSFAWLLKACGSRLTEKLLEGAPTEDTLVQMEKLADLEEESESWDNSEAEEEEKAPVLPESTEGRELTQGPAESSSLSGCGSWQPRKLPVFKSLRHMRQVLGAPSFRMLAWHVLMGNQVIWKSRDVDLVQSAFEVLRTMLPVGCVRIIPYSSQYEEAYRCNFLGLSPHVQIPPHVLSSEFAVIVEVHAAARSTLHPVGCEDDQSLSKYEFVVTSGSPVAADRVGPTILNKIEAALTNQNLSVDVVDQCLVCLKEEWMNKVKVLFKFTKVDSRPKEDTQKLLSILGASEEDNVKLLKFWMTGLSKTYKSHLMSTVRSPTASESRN

[4] = target: T4, FLAG–FLCN (amino-terminally FLAG-tagged folliculin) (UniProt Q8NFG4); assay: co-IP; FLAG–FLCN (empty vector control) immunoprecipitated from HEK293, immunoblot
T4 sequence: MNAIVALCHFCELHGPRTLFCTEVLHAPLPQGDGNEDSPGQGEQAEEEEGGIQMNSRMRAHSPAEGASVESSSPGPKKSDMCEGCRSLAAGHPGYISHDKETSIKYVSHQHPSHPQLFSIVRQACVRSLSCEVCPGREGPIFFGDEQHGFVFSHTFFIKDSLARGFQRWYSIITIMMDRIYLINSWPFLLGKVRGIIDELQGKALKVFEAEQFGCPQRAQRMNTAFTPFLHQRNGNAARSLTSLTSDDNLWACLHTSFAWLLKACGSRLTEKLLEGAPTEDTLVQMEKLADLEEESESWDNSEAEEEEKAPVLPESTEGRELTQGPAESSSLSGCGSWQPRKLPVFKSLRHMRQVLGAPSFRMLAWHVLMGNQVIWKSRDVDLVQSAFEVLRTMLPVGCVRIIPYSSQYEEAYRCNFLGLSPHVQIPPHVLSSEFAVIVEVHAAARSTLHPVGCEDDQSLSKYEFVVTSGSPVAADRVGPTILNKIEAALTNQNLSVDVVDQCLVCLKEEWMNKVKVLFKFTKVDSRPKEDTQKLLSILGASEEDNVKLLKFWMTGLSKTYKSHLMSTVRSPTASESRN

Measured: binding

B1: Cdc37^p50, endogenous (protein, UniProt Q16543 1-378)
chain: MVDYSVWDHIEVSDDEDETHPNIDTASLFRWRHQARVERMEQFQKEKEELDRGCRECKRKVAECQRKLKELEVAEGGKAELERLQAEAQQLRKEERSWEQKLEEMRKKEKSMPWNVDTLSKDGFSKSMVNTKPEKTEEDSEEVREQKHKTFVEKYEKQIKHFGMLRRWDDSQKYLSDNVHLVCEETANYLVIWCIDLEVEEKCALMEQVAHQTIVMQFILELAKSLKVDPRACFRQFFTKIKTADRQYMEGFNDELEAFKERVRGRAKLRIEKAMKEYEEEERKKRLGPGGLDPVEVYESLPEELQKCFDVKDVQMLQDAISKMDPTDAKYHMQRCIDSGLWVPNSKASEAKEGEEAGPGDPLLEAVPKTGDEKDVSV
binds: all assays above

B2: p23, endogenous (protein, UniProt Q15185 1-160)
chain: MQPASAKWYDRRDYVFIEFCVEDSKDVNVNFEKSKLTFSCLGGSDNFKHLNEIDLFHCIDPNDSKHKRTDRSILCCLRKGESGQSWPRLTKERAKLNWLSVDFNNWKDWEDDSDEDMSNFDRFSEMMNNMGGDEDVDLPEVDGADDDSQDSDDEKMPDLE
binds: all assays above

Reference: paper PMC4931344
